In PMC12630025, “Characterization and inhibitor sensitivity of ARAF, BRAF, and CRAF kinases [drawing 1]” (The Journal of Biological Chemistry, 2025) one finds binding data, which are given here for one molecule.

Results are given in words; binding and its absence hold for the method and conditions named. Tags and fused reporters may be left off the sequences shown.

The target of the assay is his6-ARAF^282-579 (UniProt P10398). Put plainly: SEC; RAF construct and MEK1 coexpressed in SF9 cells; Ni-NTA (for some constructs then MESNA cleavage of the intein and chitin beads, or TEV cleavage and a second Ni-NTA), then gel filtration on Superdex 200; fractions analysed by SDS-PAGE; 50 mM Tris, 150 mM NaCl, 10 mM MgCl2, 1 mM TCEP, 1 μM AMP-PNP. A general note: Size exclusion chromatography separates by hydrodynamic size, large species first.

B1: his6-ARAF^282-579 (domain or fragment, UniProt P10398 282-579)
chain: KSLADDKKKVKNLGYRDSGYYWEVPPSEVQLLKRIGTGSFGTVFRGRWHGDVAVKVLKVSQPTAEQAQAFKNEMQVLRKTRHVNILLFMGFMTRPGFAIITQWCEGSSLYHHLHVADTRFDMVQLIDVARQTAQGMDYLHAKNIIHRDLKSNNIFLHEGLTVKIGDFGLATVKTRWSGAQPLEQPSGSVLWMAAEVIRMQDPNPYSFQSDVYAYGVVLYELMTGSLPYSHIGCRDQIIFMVGRGYLSPDLSKISSNCPKAMRRLLSDCLKFQREERPLFPQILATIELLQRSLPKIER
B1: the binding entry is “no binding”.
